Drawing on the supplement of paper PMC11150407, this text covers cell viability for 96 compounds.

Structures are written as SMILES. Structures can show the parent of a compound that is named as a salt. Hit rate of the full screen: of about 2,100 compounds, about 180 (8.6%) showed an effect of 50% or more. The list shows a part of the results.

The subject of this assay is MOLM1 and UCSD/AML1 (averaged). Description: cell viability relative to DMSO control (POC); higher = less growth inhibition. To be noted: 1 µM; 72 h. The protocol: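 Primary viability screen in the 3q26 EVI1-high AML cell lines MOLM1 and UCSD/AML1 (1.5e3 cells/well, 384-well), compounds at 1 uM for 72 h. ATP CellTiter-Glo read-out given as percent of viable cells over DMSO control (POC), averaged over duplicates. DMSO was the negative control and 5 uM etoposide the positive control. This mapping covers the MicroSource Spectrum and Selleck anticancer libraries (drug names).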
In the case of `O=c1c(O)c(-c2ccc(O)cc2O)oc2cc(O)cc(O)c12`, the cell viability (commonly a read-out of living cells in per cent, often relative to untreated cells) is 101%. For `COc1cc(-c2coc3cc(O[C@@H]4O[C@H](CO)[C@@H](O)[C@H](O)[C@H]4O)c(OC)c(O)c3c2=O)cc(O)c1OC`, the cell viability is 95.3%. `CCC(=O)O[C@]1(C(=O)CCl)[C@@H](C)C[C@H]2[C@@H]3CCC4=CC(=O)C=C[C@]4(C)[C@@]3(F)[C@@H](O)C[C@@]21C`: the cell viability turned out to be 65.7%. As for `O=C1C[C@@H](c2ccc(O)cc2)Oc2cc(O)cc(O)c21`, the cell viability was determined as 88.5%.

For `c1ccc([C@H]2CN3CCSC3=N2)cc1`, the cell viability was 109%. For the compound `O=C1OCCN1/N=C/c1ccc([N+](=O)[O-])o1`, the cell viability was 101%. Consider `NC(=O)c1ccc([N+](=O)[O-])cc1Cl`, for which the cell viability came to 103%. For `CN(C)c1nc(N(C)C)nc(N(C)C)n1`, the cell viability was 103%. Turning to `CN(C)c1nc(N(C)C)nc(N(C)C)n1` [Altretamine (Hexalen)], the cell viability came out at 95.9%. In the case of `O.O.O.O.O.O.O.O.O.O.O.O.O.O.O.O.O=S(=O)([O][Al])OC[C@H]1O[C@@](COS(=O)(=O)[O][Al])(O[C@H]2O[C@H](COS(=O)(=O)[O][Al])[C@@H](OS(=O)(=O)[O][Al])[C@H](OS(=O)(=O)[O][Al])[C@H]2OS(=O)(=O)[O][Al])[C@@H](OS(=O)(=O)[O][Al])[C@@H]1OS(=O)(=O)[O][Al]`, the cell viability worked out at 101%. For the compound `CC(C)NCC(O)c1ccc2ccccc2c1` (stereo unspecified), the cell viability turned out to be 109%. As to `CC(=O)O[C@]1(C(C)=O)CC[C@H]2[C@@H]3C[C@H](C)C4=CC(=O)CC[C@]4(C)[C@H]3CC[C@@]21C` [Medroxyprogesterone acetate], the cell viability was 59.9%.

Regarding `CC(=O)O[C@]1(C(C)=O)CC[C@H]2[C@@H]3C[C@H](C)C4=CC(=O)CC[C@]4(C)[C@H]3CC[C@@]21C`, the cell viability is 103%. For the compound `C[C@H]1C[C@@H]2[C@H]([C@@H](O)C[C@@]3(C)[C@H]2CC[C@]3(O)C(=O)CO)[C@@]2(C)C=CC(=O)C=C12`, the cell viability turned out to be 67.8%.

`CS(=O)(=O)CCCCN=C=S`: the cell viability was 84.4%.

As for `NC(=O)C(c1ccccc1)(c1ccccc1)[C@@H]1CCN(CCc2ccc3c(c2)CCO3)C1`, the cell viability is 84.9%.

With `CCCNCC(O)COc1ccccc1C(=O)CCc1ccccc1` (stereo unspecified), the cell viability is 95.5%. For the compound `COc1cc([C@@H]2c3cc4c(cc3[C@@H](O[C@@H]3O[C@@H]5CO[C@@H](C)O[C@H]5[C@H](O)[C@H]3O)[C@H]3COC(=O)[C@H]23)OCO4)cc(OC)c1O`, the cell viability is 59.4%. As for `O=C(Nc1ccccc1)Nc1ccccc1`, the figure is 87.7%; as for `O=[N+]([O-])c1cccc2cn[nH]c12`, 102%; as for `COc1ccccc1OCC(O)CN1CCN(CC(=O)Nc2c(C)cccc2C)CC1` (stereo unspecified), 90.8%. For the compound `COc1ccccc1OCC(O)CN1CCN(CC(=O)Nc2c(C)cccc2C)CC1` (stereo unspecified) [Ranolazine (Ranexa)], the cell viability was 95.2%. Take `CCn1cc(C(=O)O)c(=O)c2cnc(N3CCNCC3)nc21`: the cell viability came out at 117%.

In the case of `NCCS(=O)(=O)O`, the cell viability worked out at 103%.

In the case of `COc1cc2nc(N3CCN(C(=O)c4ccco4)CC3)nc(N)c2cc1OC`, the cell viability amounted to 97.3%. With `Cc1ccc(NC(=O)c2ccc(CN3CCN(C)CC3)cc2)cc1Nc1nc(-c2cccnc2)cs1` [Masitinib (AB1010)], the cell viability worked out at 25.7%. Then `CC(=O)Oc1ccc2c(c1C(C)C)CCC1C(C)(C)CCC[C@]21C` (stereo partly specified), with 91.9%. As for `COc1ccc(-c2cc(=O)c3c(O)cc(O)cc3o2)cc1`, the cell viability came out at 91.9%.

As to `CC(=O)N[C@@H](CC(=O)N[C@@H](CCC(=O)O)C(=O)O)C(=O)O`, the cell viability turned out to be 101%. Turning to `O=c1c(O)cccc2cc(O)c(O)c(O)c12`, the cell viability amounted to 92%. Take `Cc1ccc(S(=O)(=O)NC(=O)NN2CC3CCCC3C2)cc1` (stereo unspecified): the cell viability was found to be 115%. Consider `CC(=O)O[C@H]1CC[C@@]2(C)[C@H](CC[C@@H]3[C@@H]2CC[C@]2(C)[C@@H]4[C@H](C[C@@H]32)O[C@]2(CC[C@@H](C)CO2)[C@H]4C)C1`, for which the cell viability was 94.2%. For the compound `C#CCN(C)Cc1ccccc1`, the cell viability is 105%. Then `CCn1cc(C(=O)O)c(=O)c2ccc(C)nc21`, with 89.7%; and `C[C@H]1[C@@H](O)O[C@@H]2O[C@@]3(C)CC[C@H]4[C@H](C)CC[C@@H]1[C@@]24OO3`, with 101%; and `CCCCCC(C)N` (stereo unspecified), with 89.3%. Take `COc1ccc2cc(CCC(C)=O)ccc2c1`: the cell viability was determined as 103%. Then `O=C(O)CCC(=O)OC[C@@H](NC(=O)C(Cl)Cl)[C@H](O)c1ccc([N+](=O)[O-])cc1`, with 40.2%; and `O=C(CCCN1CC=C(n2c(=O)[nH]c3ccccc32)CC1)c1ccc(F)cc1`, with 100%; and `CCN(CC)CCNC(=O)c1cc(S(C)(=O)=O)ccc1OC`, with 102%. In the case of `Oc1c(I)cc(I)c2cccnc12`, the cell viability amounted to 117%. Regarding `CCN(Cc1ccncc1)C(=O)C(CO)c1ccccc1` (stereo unspecified), the cell viability amounted to 90.2%. Consider `OC(CCN1CCCCC1)(c1ccccc1)C1CC2C=CC1C2` (stereo unspecified), for which the cell viability was determined as 97.1%. As for `Cc1ncc([N+](=O)[O-])n1CCO`, the figure is 95.8%; as for `CCN(CC)CC#CCOC(=O)C(O)(c1ccccc1)C1CCCCC1` (stereo unspecified), 90.2%; as for `COc1ccc2[nH]cc(CCNC(C)=O)c2c1`, 98.6%. With `O=C([O-])c1ccccc1O.[Na+]`, the cell viability was 102%. For `NC[C@H]1O[C@H](O[C@H]2[C@H](O[C@@H]3O[C@H](CO)[C@@H](O)[C@H]3O)[C@@H](O)[C@H](N)C[C@@H]2N)[C@H](N)[C@@H](O)[C@@H]1O`, the cell viability is 96.8%.

On to `NC(=O)N/N=C/c1ccc([N+](=O)[O-])o1`, for which the cell viability turned out to be 98.5%.

Turning to `CCCC(=O)Nc1ncnc2c1ncn2[C@@H]1O[C@@H]2COP(=O)(O)O[C@H]2[C@H]1OC(=O)CCC`, the cell viability came out at 95.9%.

As to `CC(=O)N[C@@H](CCC(=O)O)C(=O)O`, the cell viability was 103%. Then `O=C(CNC(=O)c1ccc(Cl)cc1)NO`, with 107%.

On to `CC(=O)Oc1cccc(O)c1`, for which the cell viability is 92.1%. With `C/C1=C\CCC(=O)C2CC(C)(C)C2CC1` (stereo unspecified), the cell viability came out at 93.3%. `CCN1CCN(C(=O)N[C@@H](C(=O)N[C@@H]2C(=O)N3[C@@H]2SC(C)(C)[C@@H]3C(=O)O)c2ccccc2)C(=O)C1=O`: the cell viability amounted to 103%.

On to `CN(NC(=O)CC(=O)NN(C)C(=S)c1ccccc1)C(=S)c1ccccc1` [Elesclomol], for which the cell viability worked out at 1.23%. On to `O=C(NCO)c1cccnc1`, for which the cell viability was 106%. Consider `CO[C@@H]1[C@@H](OC(N)=O)[C@@H](O)[C@H](Oc2ccc3c(O)c(NC(=O)c4ccc(O)c(CC=C(C)C)c4)c(=O)oc3c2C)OC1(C)C`, for which the cell viability stood at 95.7%. As to `CC1(C)OC(=O)NC1=O`, the cell viability was 114%. As to `COc1ccc(NS(=O)(=O)c2ccc(N)cc2)nn1`, the cell viability stood at 100%. As for `Nc1ccc(C(=O)NCC(=O)O)cc1`, the figure is 94.9%; as for `CCC[C@H](N[C@@H](C)C(=O)N1[C@H](C(=O)O)C[C@@H]2CCCC[C@@H]21)C(=O)OCC`, 87.8%; as for `Cn1nnnc1SCC1=C(C(=O)O)N2C(=O)[C@@H](NC(=O)[C@H](O)c3ccccc3)[C@H]2SC1`, 106%. `OCCN1CCN(CCCN2c3ccccc3Sc3ccc(Cl)cc32)CC1`: the cell viability worked out at 85.8%. Turning to `CN(C)CCc1c[nH]c2ccc(Cn3cncn3)cc12`, the cell viability is 92.9%.

On to `OC[C@H]1O[C@@H](Oc2ccc(O)cc2)[C@H](O)[C@@H](O)[C@@H]1O`, for which the cell viability was determined as 109%.

In the case of `Nc1ccc(S(=O)(=O)c2ccc(N)cc2)cc1`, the cell viability was 99.5%.

Consider `COc1cc(/C=C/C(=O)O)cc(OC)c1OC`, for which the cell viability was 118%. Turning to `C=C1C[C@H]2[C@@H]3C=C(C)C4=CC(=O)CC[C@]4(C)[C@H]3CC[C@]2(C)[C@@]1(OC(C)=O)C(C)=O`, the cell viability was 78.5%.

In the case of `COC(=O)C1=CO[C@@H](O[C@@H]2O[C@H](CO)[C@@H](O)[C@H](O)[C@H]2O)[C@@H]2[C@@H](C)[C@@H](O)C[C@H]12`, the cell viability was 94.9%. On to `N[C@H]1C(O)O[C@H](CO)[C@@H](O)[C@@H]1O` (stereo partly specified), for which the cell viability is 102%. As for `COC1=CC(c2cc3ccccc3[nH]2)=N/C1=C\c1[nH]c(C)cc1C` [Obatoclax mesylate (GX15-070)], the figure is 18.7%.

On to `NC(C(=O)O)C(O)C(=O)O` (stereo not drawn) [d,l-threo-3-HYDROXYASPARTIC ACID], for which the cell viability was 129%.

On to `O=C(Nc1ccc(OC(F)(F)F)cc1)c1sccc1NCc1ccnc2ccccc12`, for which the cell viability came out at 64.7%. As for `COc1ccc(CN(CCN(C)C)c2ccccn2)cc1`, the figure is 103%; as for `CCCNC(C)C(=O)Nc1ccccc1C` (stereo unspecified), 100%.

For `CC(COc1ccccc1)N(CCCl)Cc1ccccc1` (stereo unspecified), the cell viability was determined as 91.4%. Turning to `CC(=O)c1ccc(S(=O)(=O)NC(=O)NC2CCCCC2)cc1`, the cell viability came out at 104%. In the case of `CC(C)(C)Cn1c(N)nc2ccc(-c3[nH]c(C(C)(C)C)nc3-c3ccc(F)cc3)nc21`, the cell viability was 91%. Consider `OC[C@H]1O[C@H]([S-])[C@H](O)[C@@H](O)[C@@H]1O.[Au+]`, for which the cell viability amounted to 99.2%.

For the compound `Cn1c(=O)c2nc[nH]c2n(C)c1=O`, the cell viability turned out to be 116%. For the compound `COc1cc2cc3c4cc(OC)c(OC)cc4cc[n+]3c(C)c2cc1OC`, the cell viability was found to be 99.6%. As for `C=C1c2cccc(O)c2C(=O)C2=C(O)[C@]3(O)C(=O)C(C(N)=O)=C(O)[C@@H](N(C)C)[C@@H]3[C@@H](O)[C@H]12`, the figure is 100%; as for `c1ccc(C2CN3CCSC3=N2)cc1` (stereo unspecified), 113%. Take `Cc1scc2c1N(C(=O)CN1CCN(C)CC1)c1ccccc1NC2=O`: the cell viability is 112%. For `C[C@@]12CCc3occc3[C@H]1CC[C@@]13C[C@@H](CC[C@H]12)[C@@](O)(CO)C3`, the cell viability came to 89.6%. Take `CO/N=C(\C(=O)N[C@@H]1C(=O)N2C(C(=O)O)=C(CSc3nc(=O)c(O)nn3C)CS[C@H]12)c1csc(N)n1`: the cell viability worked out at 102%.

For `O=C(O)CS`, the cell viability was determined as 116%. `NC1(C(=O)O)CCCC1`: the cell viability turned out to be 93.7%.

Consider `NCCCC[C@H](N[C@@H](CCc1ccccc1)C(=O)O)C(=O)N1CCC[C@H]1C(=O)O`, for which the cell viability is 100%. Consider `Cc1ccc(C(=O)Nc2ccc(CN3CCN(C)CC3)c(C(F)(F)F)c2)cc1C#Cc1cnc2cccnn12`, for which the cell viability was 4.31%. Consider `CC(C)(C)NC[C@H](O)COc1nsnc1N1CCOCC1`, for which the cell viability stood at 122%.

In the case of `C[C@]12CCC(=O)C=C1CC[C@@H]1[C@@H]2[C@@H](O)C[C@@]2(C)[C@H]1CC[C@]2(O)C(=O)COC(=O)CCC(=O)O`, the cell viability came out at 85.4%. With `CCOC(=O)[C@H](CCc1ccccc1)N[C@H]1CCc2ccccc2N(CC(=O)O)C1=O`, the cell viability is 58.5%.

On to `O=C(Nc1c[nH]nc1-c1nc2ccc(CN3CCOCC3)cc2[nH]1)NC1CC1`, for which the cell viability worked out at 17.5%.

For `COc1cc(-c2coc3cc(O)c(OC)c(O)c3c2=O)cc(O)c1OC`, the cell viability came out at 90.5%.
